# Data: paper doi:10.1101/224824
# Amino acid sequences for entries named in this document (tags omitted).
# UniProt P49770, whole entry: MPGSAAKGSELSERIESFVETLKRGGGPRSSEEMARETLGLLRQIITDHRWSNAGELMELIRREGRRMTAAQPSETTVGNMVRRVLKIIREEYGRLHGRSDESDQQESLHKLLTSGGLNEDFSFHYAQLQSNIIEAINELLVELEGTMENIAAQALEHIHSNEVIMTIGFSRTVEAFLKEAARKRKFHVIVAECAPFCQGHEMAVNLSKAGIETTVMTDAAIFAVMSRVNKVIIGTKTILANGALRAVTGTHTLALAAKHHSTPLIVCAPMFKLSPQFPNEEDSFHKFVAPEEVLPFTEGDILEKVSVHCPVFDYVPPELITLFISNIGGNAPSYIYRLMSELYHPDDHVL
# UniProt O14744, whole entry: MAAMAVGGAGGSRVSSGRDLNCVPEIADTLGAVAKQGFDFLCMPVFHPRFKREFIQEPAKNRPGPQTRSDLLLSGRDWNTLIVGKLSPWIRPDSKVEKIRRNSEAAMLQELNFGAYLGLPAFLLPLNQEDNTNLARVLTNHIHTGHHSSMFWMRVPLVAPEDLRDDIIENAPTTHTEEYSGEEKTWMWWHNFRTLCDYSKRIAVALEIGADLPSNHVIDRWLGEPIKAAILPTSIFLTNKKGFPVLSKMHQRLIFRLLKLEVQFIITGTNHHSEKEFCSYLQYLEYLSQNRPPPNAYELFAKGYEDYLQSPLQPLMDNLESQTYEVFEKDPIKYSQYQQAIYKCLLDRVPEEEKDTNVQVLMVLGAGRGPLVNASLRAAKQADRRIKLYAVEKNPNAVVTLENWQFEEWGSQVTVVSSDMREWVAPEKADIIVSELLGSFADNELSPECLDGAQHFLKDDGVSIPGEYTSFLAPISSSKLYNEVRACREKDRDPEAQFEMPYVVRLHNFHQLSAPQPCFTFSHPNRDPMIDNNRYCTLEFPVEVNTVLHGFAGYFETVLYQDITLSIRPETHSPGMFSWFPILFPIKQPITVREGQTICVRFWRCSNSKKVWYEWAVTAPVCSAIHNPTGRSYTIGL
# No constants are given. Whether binding was seen depends on the method and setting.
# Molecular target: 3xFLAG-tagged human eIF2B β subunit (human) (UniProt P49770)
# Test: SEC
substance,measurement,value
PRMT5 (from UniProt O14744 1-637),binding,no binding
